From patent US20020119473
Results from cells or extracts need not show a direct contact. Negatives hold for the conditions tested.

By UniProt entry, the sequences of proteins in these tests, tags left out. Where a name states a change or a piece, a line headed by the entry shows the natural chain unless it says otherwise.
UniProt Q04609: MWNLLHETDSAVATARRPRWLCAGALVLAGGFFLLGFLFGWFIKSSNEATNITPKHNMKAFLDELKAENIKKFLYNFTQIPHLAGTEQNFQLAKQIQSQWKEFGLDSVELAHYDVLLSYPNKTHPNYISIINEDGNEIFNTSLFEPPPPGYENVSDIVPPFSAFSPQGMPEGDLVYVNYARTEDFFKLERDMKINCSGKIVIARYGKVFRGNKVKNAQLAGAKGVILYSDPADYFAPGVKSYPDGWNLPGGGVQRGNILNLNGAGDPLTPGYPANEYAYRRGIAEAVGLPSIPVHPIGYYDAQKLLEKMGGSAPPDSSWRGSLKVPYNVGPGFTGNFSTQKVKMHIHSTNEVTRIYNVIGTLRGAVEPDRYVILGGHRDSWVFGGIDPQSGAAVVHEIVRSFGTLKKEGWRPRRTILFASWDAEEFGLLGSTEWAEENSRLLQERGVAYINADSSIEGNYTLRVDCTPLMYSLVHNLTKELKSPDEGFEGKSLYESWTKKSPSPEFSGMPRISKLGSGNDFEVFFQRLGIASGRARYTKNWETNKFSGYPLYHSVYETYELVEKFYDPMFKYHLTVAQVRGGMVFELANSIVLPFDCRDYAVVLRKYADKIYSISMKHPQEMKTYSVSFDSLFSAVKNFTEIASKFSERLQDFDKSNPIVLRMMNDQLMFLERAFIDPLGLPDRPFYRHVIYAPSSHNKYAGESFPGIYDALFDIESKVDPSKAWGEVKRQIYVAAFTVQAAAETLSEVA

Biological target: native PSMA on LNCaP cells (Homo sapiens) (UniProt Q04609)
Assay: binding assay
Conditions: 2'-F pyrimidines, 5'-hexylamine, 3' deoxy-T cap, PBS without Mg/Ca, room temp, protein on the cell surface, label: Rhodamine-Red-X

Sequence	binding result (scrambled control, 50 nM, variant of A10-3 rhodamine)	binding result (fluorescence microscopy, 50 nM aptamer, PC-3 (PSMA-negative) cells as specificity control, variant of xPSM1.A10-3)
CAGGCAUGCCUAGCUAAGCAGCCCAUGGCUUAUGCGCGGAAUAUUGGCUUCCGUUC [A10-3-scrambled (A10-3-rndm)]	no binding	
GGGAGGACGAUGCGGAUCAGCCAUGUUUACGUCACUCCUUGUCAAUCCUCAUCGGC [A10-3 rhodamine]		binds
